# Assay results: patent US7935675
# These are yes or no findings as the source states them, for the method shown. Some entries that bind do so weakly or less than the wild type.
# B1: NFκB p50, P25799 1-431 (protein, murine (cell line J774), UniProt P25799 1-431, looked up)
# chain: MADDDPYGTGQMFHLNTALTHSIFNAELYSPEIPLSTDGPYLQILEQPKQRGFRFRYVCEGPSHGGLPGASSEKNKKSYPQVKICNYVGPAKVIVQLVTNGKNIHLHAHSLVGKHCEDGVCTVTAGPKDMVVGFANLGILHVTKKKVFETLEARMTEACIRGYNPGLLVHSDLAYLQAEGGGDRQLTDREKEIIRQAAVQQTKEMDLSVVRLMFTAFLPDSTGSFTRRLEPVVSDAIYDSKAPNASNLKIVRMDRTAGCVTGGEEIYLLCDKVQKDDIQIRFYEEEENGGVWEGFGDFSPTDVHRQFAIVFKTPKYKDVNITKPASVFVQLRRKSDLETSEPKPFLYYPEIKDKEEVQRKRQKLMPNFSDSFGGGSGAGAGGGGMFGSGGGGGSTGSPGPGYGYSNYGFPPYGGITFHPGVTKSNAGVTHG
# What was measured:
# [1] = molecular target: T1, NFκB p65 (murine (cell line J774)), Q04207; assay: EMSA supershift, J774 nuclear extracts, labelled NFκB site probe; details: remark: other sources report otherwise
# T1 chain: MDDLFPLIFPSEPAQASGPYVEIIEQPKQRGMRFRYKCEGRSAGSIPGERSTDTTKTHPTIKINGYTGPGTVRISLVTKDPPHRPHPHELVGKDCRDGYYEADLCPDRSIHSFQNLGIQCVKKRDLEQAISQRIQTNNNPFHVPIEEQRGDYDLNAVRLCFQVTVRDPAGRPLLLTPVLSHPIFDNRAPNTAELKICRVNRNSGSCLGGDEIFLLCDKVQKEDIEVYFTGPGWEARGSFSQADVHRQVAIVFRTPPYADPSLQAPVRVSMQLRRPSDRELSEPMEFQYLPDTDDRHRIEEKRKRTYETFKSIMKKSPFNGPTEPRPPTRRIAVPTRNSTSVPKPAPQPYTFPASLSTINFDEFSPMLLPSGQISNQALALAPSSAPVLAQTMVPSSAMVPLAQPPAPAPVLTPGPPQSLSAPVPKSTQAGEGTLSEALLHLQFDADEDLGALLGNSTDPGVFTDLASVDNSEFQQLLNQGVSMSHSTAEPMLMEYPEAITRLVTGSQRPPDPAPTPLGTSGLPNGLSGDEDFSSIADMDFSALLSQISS
# [2] = molecular target: T1, NFκB p65 (murine (cell line J774)), …; assay: EMSA supershift; details: remark: other sources report otherwise
binder,measurement,setting,value
B1,binding,[1],binds
same,binding,[2],binds
